# Measurements taken from patent US20200239473A1, “NEW DERIVATIVES OF LICOFELONE” (priority 2015, published 2020).
# For at least one compound, name, drawing or mass did not settle the structure.
# System: MOG35-55-induced experimental autoimmune encephalomyelitis (EAE)
# Experiment: MOG35-55-induced experimental autoimmune encephalomyelitis (EAE) in C57BL/6 mice
# Format: in vivo
# Conditions: oral route, 11.54 mM dose formulation, 10 ml/kg, day 1 to 13, male C57BL/6 mice
smiles,measurement,value
"COC(=O)/C=C/C(=O)OCCOCCOCCOCCOC(=O)Cc1c(-c2ccc(Cl)cc2)c(-c2ccccc2)c2n1CC(C)(C)C2 [Example 3, (E)-But-2-enedioic acid 2-{2-[2-(2-{2-[2-(4-chloro-phenyl)-6,6-dimethyl-1-phenyl-6,7-dihydro-5H-pyrrolizin-3-yl]-acetoxy}-ethoxy)-ethoxy]-ethoxy}-ethyl ester methyl ester]","effect of treatment on EAE (clinical score, FIG. 7)",effective
